Results are given in words; binding and its absence hold for the method and conditions named. A result given as binding can be weak or reduced; the word gives no strength.

Chains of the proteins cited; added tags and fusions are not shown. Lines headed by an entry give the natural chain unless they say otherwise; changes in a name come on top.
UniProt Q7LZK8: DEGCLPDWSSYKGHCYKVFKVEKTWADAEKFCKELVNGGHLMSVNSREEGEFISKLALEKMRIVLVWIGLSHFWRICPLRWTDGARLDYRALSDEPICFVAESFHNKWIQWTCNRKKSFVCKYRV
UniProt Q7LZK5: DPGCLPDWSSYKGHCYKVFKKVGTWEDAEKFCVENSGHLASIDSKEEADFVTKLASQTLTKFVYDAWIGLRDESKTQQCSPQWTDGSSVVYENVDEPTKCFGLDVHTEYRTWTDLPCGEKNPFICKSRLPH

This is an account of results in publication PMC9024624.

The target in the test is bitiscetin-1 β subunit (Bitis arietans) (UniProt Q7LZK8). Briefly: SDS-PAGE under non-reducing and reducing conditions; purified protein run unreduced (~25 kDa) and reduced (two bands); for rBit-3 N-terminal sequencing of the two reduced bands; subunits joined in the producing cells.

For the substance “bitiscetin-1 α subunit (from UniProt Q7LZK5)”, the binding entry is listed as “binds”.
